Some entries share one result that the patent states for a list of compounds.
molecular target: T1, human cathepsin K (Homo sapiens, UniProt P43235); experiment: Human cathepsin K peptidase activity assay (fluorogenic AMC substrate), apparent inhibition constant; type: biochemical; details: read-out: Ki (inhibitors of cathepsin K)
T1 construct: purchased Dr. Boris Turk (Josef Stefan Institute, Ljubljana, Slovenia)
T1 sequence (P43235 115-329): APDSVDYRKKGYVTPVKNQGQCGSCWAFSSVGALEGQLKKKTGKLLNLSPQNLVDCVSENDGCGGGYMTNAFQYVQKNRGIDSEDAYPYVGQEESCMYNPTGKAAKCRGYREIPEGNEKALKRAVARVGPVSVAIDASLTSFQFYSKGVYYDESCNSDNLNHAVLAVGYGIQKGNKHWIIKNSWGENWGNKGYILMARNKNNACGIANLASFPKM

Ki, < 50 µM:
O=C1CN(C(=O)c2ccccc2)[C@@H]2CCN(C(=O)OCC3(COc4ccccc4)CCC3)[C@H]12 [Example 15]
CCC(Cc1cccs1)OC(=O)N1CC[C@@H]2[C@H]1C(=O)CN2C(=O)c1ccccc1 (stereo partly drawn) [Example 16, (3aR,6aS)-1-(Thiophen-2-yl)butan-2-yl 4-benzoyl-6-oxohexahydropyrrolo[3,2-b]pyrrole-1(2H)-carboxylate]
CC(C)C1(OC(=O)N2CC[C@@H]3[C@H]2C(=O)CN3C(=O)c2ccccc2)CC1 [Example 17]
CC(C)CC(CCc1cccs1)OC(=O)N1CC[C@@H]2[C@H]1C(=O)CN2C(=O)c1ccccc1 (stereo partly drawn) [Example 18, (3aR,6aS)-5-Methyl-1-(thiophen-2-yl)hexan-3-yl 4-benzoyl-6-oxohexahydropyrrolo[3,2-b]pyrrole-1(2H)-carboxylate]
CCC(CC(C)(C)C)OC(=O)N1CC[C@@H]2[C@H]1C(=O)CN2C(=O)c1ccccc1 (stereo partly drawn) [Example 19, (3aR,6aS)-5,5-Dimethylhexan-3-yl 4-benzoyl-6-oxohexahydropyrrolo[3,2-b]pyrrole-1 (2H)-carboxylate]
CC(C)CC(OC(=O)N1CC[C@@H]2[C@H]1C(=O)CN2C(=O)c1ccccc1)c1ccccc1 (some centres unmarked) [Example 20]
O=C1CO[C@@H]2CCN(C(=O)OC3(Cc4ccccc4)CCC3)[C@H]12 [Example 21, (3aS,6aR)-1-Benzylcyclobutyl 3-oxotetrahydro-2H-furo[3,2-b]pyrrole-4(5H)-carboxylate]
O=C1CO[C@@H]2CCN(C(=O)OC3(CCc4ccccc4)CCC3)[C@H]12 [Example 22, (3aS,6aR)-1-Phenethylcyclobutyl 3-oxotetrahydro-2H-furo[3,2-b]pyrrole-4(5H)-carboxylate]
CCC(Cc1ccsc1)OC(=O)N1CC[C@H]2OCC(=O)[C@H]21 (stereo partly drawn) [Example 23, (3aS,6aR)-1-(Thiophen-3-yl)butan-2-yl 3-oxotetrahydro-2H-furo[3,2-b]pyrrole-4(5H)-carboxylate]
O=C1CO[C@@H]2CCN(C(=O)OCC3(COc4ccccc4)CCC3)[C@H]12 [Example 24, (3aS,6aR)-(1-(Phenoxymethyl)cyclobutyl)methyl 3-oxotetrahydro-2H-furo[3,2-b]pyrrole-4(5H)-carboxylate]
CCC(Cc1cccs1)OC(=O)N1CC[C@H]2OCC(=O)[C@H]21 (stereo partly drawn) [Example 25, (3aS,6aR)-1-(Thiophen-2-yl)butan-2-yl 3-oxotetrahydro-2H-furo[3,2-b]pyrrole-4(5H)-carboxylate]
CC(C)C1(OC(=O)N2CC[C@H]3OCC(=O)[C@H]32)CC1 [Example 26, (3aS,6aR)-1-Isopropylcyclopropyl 3-oxotetrahydro-2H-furo[3,2-b]pyrrole-4(5H)-carboxylate]
CC(C)CC(CCc1cccs1)OC(=O)N1CC[C@H]2OCC(=O)[C@H]21 (stereo partly drawn) [Example 27, (3aS,6aR)-5-Methyl-1-(thiophen-2-yl)hexan-3-yl 3-oxotetrahydro-2H-furo[3,2-b]pyrrole-4(5H)-carboxylate]
CC(C)CC(OC(=O)N1CC[C@H]2OCC(=O)[C@H]21)c1ccccc1 (stereo partly drawn) [Example 28, (3aS,6aR)-3-Methyl-1-phenylbutyl 3-oxotetrahydro-2H-furo[3,2-b]pyrrole-4(5H)-carboxylate]
CCC(CC(C)(C)C)OC(=O)N1CC[C@H]2OCC(=O)[C@H]21 (stereo partly drawn) [Example 29, (3aS,6aR)-5,5-Dimethylhexan-3-yl 3-oxotetrahydro-2H-furo[3,2-b]pyrrole-4(5H)-carboxylate]
CCc1ccc(-c2ccccc2)cc1OC(=O)N1CC[C@H]2OCC(=O)[C@H]21 [Example 30, (3aS,6aR)-4-Ethylbiphenyl-3-yl 3-oxotetrahydro-2H-furo[3,2-b]pyrrole-4(5H)-carboxylate]
CCC(Cc1ccsc1)NC(=O)N1CC[C@@H]2[C@H]1C(=O)CN2C(=O)c1ccccc1 (stereo partly drawn) [Example 31, (3aR,6aS)-4-Benzoyl-6-oxo-N-(1-(thiophen-3-yl)butan-2-yl)hexahydropyrrolo[3,2-b]pyrrole-1(2H)-carboxamide]

Source: patent US20090131502A1, “Biologically active compounds” (priority 2005, published 2009)
